According to PMC5892408 (Chemical Science, 2018):

Experiment: general procedure: Fmoc solid-phase peptide synthesis; Tentagel S RAM resin
Details: late stage modification step

c(RGDfK)-PA
step yield: 72%
